Source: PubChem BioAssay AID2551 (National Center for Advancing Translational Sciences (NCATS), 2010)
The whole screen tested about 310,000 compounds, of which about 17,000 (5.5%) were called active. The inconclusive results got no clear call from the source; some entries with a clear call stand among them for comparison. Calls come from the whole dose curve; as a rule, active = well fitted inhibition curve with a large enough effect; inconclusive = small, poorly fitted or top-dose-only effect, or effect the other way; inactive = no such curve, though single readings can be large or run the other way. A potency beside an inconclusive call is a rough fit, not a confirmed value.
Note: nearly all actives have a fitted effect of over 60% in size.
Potency is the fitted concentration of half-maximal effect.

The chains behind the UniProt entries cited, without tags or fusion partners. Where a name states a change or a piece, a line headed by the entry shows the natural chain unless it says otherwise.
UniProt P51450: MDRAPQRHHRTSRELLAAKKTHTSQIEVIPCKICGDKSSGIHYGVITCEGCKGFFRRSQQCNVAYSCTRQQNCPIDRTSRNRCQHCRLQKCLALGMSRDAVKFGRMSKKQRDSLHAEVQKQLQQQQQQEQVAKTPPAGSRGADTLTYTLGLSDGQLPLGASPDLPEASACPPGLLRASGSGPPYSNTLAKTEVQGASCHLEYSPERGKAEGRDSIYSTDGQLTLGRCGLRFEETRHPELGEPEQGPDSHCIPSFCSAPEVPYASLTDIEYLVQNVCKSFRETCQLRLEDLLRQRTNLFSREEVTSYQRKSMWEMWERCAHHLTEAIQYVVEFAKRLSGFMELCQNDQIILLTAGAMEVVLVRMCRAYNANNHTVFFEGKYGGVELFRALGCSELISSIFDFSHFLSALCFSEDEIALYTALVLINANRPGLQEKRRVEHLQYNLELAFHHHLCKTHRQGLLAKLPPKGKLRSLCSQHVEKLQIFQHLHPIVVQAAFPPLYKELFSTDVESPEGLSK

Each compound was assayed against Nuclear receptor ROR-gamma (Mus musculus) (UniProt P51450) (assay: qHTS for inhibitors of ROR gamma transcriptional activity). Settings: Drosophila S2 Gal4-RORgamma UAS-luciferase reporter, 20 h; series mostly up to 53.6 µM.
Procedure, shortened: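 Compounds are pin-transferred onto Drosophila Schneider cells expressing a copper-inducible Gal4–ROR gamma transactivation domain fusion. After 1 hr, copper sulfate is added to 700 uM final; luciferase is read 20 hr later.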
In the case of O=S1(=O)C=C(Sc2nnc(-c3ccccc3)o2)c2ccccc21, the Potency is reported as active: 1.78 µM.
CC[C@H](NC(=O)[C@H](CCC(=O)O)NC(=O)[C@H](CCC(=O)O)NC(=O)[C@H](CC(=O)O[S+](=O)([O-])c1cccc2c(NCCN)cccc12)NC(=O)[C@H](CCC(=O)O)NC(=O)[C@H](CC(=O)O)NC(C)=O)C(=O)ON[C@@H](C)C(=O)N[C@@H](CO)C(=O)N[C@@H](CCCCNC(=O)c1ccc(N=Nc2ccc(N(C)C)cc2)cc1)C(N)=O was tested, and the Potency was “inactive”.
For CN(C)C1(CNC(=S)Nc2ccccc2C(F)(F)F)CCCCC1, the Potency was inconclusive: 20 µM [inhibitor, partial curve, poor fit].
In the case of O=C(COC(=O)CCc1c[nH]c2ccccc12)NC1CCS(=O)(=O)C1 (stereo not drawn), the Potency is reported as inconclusive: 11.2 µM [activator, partial curve].
COc1cccc(NC(=O)c2cc3ccccc3oc2=O)c1 was tested, and the Potency was active: 6.31 µM.
For COc1ccc(CN(CC2CCC(C(=O)O)CC2)C(=S)Nc2cc(C)cc(C)c2)cc1 (stereo not drawn), the Potency was inconclusive: 35.5 µM [inhibitor, single point].
For CCOc1ccc(-c2cc(N)n(S(=O)(=O)c3ccc(OC)cc3)n2)cc1, the Potency was “inactive”.
COc1cc2c(cc1OC)C(C)N(C(=O)c1sccc1C)CC2 (stereo not drawn) was tested, and the Potency was inconclusive: 22.4 µM [inhibitor, partial curve, poor fit].
In the case of C=CC(COCc1ccccc1)N(Cc1ccccc1)S(=O)(=O)c1ccccc1Br (stereo not drawn), the Potency is reported as active: 7.94 µM.
In the case of Cc1ccc(OCCNS(=O)(=O)c2ccc(N3CCCC3=O)cc2)cc1, the Potency is reported as inconclusive: 12.6 µM [activator, partial curve, poor fit].
With Nc1ccc(/C=C/C(=O)c2cccs2)cc1 the Potency was inconclusive: 25.1 µM [inhibitor, single point].
With CC1(C)C(c2ccccc2)=NC(c2ccc(Br)cc2)N1O (stereo not drawn) the Potency was “inactive”.
c1ccc(-c2cc(-c3ccncc3)nc3ccc4ccccc4c23)cc1 was tested, and the Potency was active: 8.91 µM.
In the case of CCCCNS(=O)(=O)c1ccc(OC)c(C)c1, the Potency is reported as inconclusive: 6.31 µM [inhibitor, single point].
For COc1ccc(/C=N/NC(=O)CN(C)S(=O)(=O)c2ccc(NC(C)=O)cc2)cc1, the Potency was “inactive”.
In the case of CCN1/C(=C/C=C/c2sc3ccccc3[n+]2CC)Sc2ccccc21, the Potency is reported as inconclusive: 2.82 µM [inhibitor, full curve, poor fit].
In the case of Cc1ccc(C2=NNC(c3ccc(Cl)cc3)=Nc3ccccc32)o1, the Potency is reported as inconclusive: 35.5 µM [inhibitor, single point].
In the case of CCOC(=O)N1CCC(N(CCN(C)C)C(=S)Nc2cccc(SC)c2)CC1, the Potency is reported as inconclusive: 3.55 µM [inhibitor, partial curve].
